PubChem BioAssay AID493246, Drosophila RNAi Screening Center | 2011
The screen tested about 21,000 reagents; below is an unselected part of those that have a named target and a result. Over the whole deposit, 429 (2%) got an active call. 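Values are raw and not normalised between plates; calls rest on per-plate z-scores that were not deposited.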 A plus sign joins genes that one reagent is predicted to hit. The record does not give: the amount of reagent, the time to read-out.

Purpose: 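Identify essential fly genes by loss of cell viability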 (primary screen)
Cell system: Drosophila Kc and S2R+ cells
Knock-down reagent: long dsRNA against Drosophila genes
Measurement: 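Cell number per well after knock-down, printed as raw plate values; calls were based on per-plate z-scores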
Scale: Kc cell number and S2R+ cell number: higher = more cells remaining
Call rule: 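Active when the per-plate z-score of cell number is 3 or more in the direction of fewer cells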

| Target gene | dsRNA | Kc cell number, rep 1 | Kc cell number, rep 2 | S2R+ cell number, rep 1 | S2R+ cell number, rep 2 | outcome |
| --- | --- | --- | --- | --- | --- | --- |
| CG5276 | DRSC15759 | 1.44e6 | 1.52e6 | 1.27e6 | 1.29e6 | inactive |
| CG12836 | DRSC06182 | 1.76e6 | 1.75e6 | 1.42e6 | 1.54e6 | inactive |
| CG12576 | DRSC20621 | 1.57e6 | 1.64e6 | 1.05e6 | 1.16e6 | inactive |
| prom (prominin) | DRSC04684 | 1.42e6 | 1.51e6 | 1.25e6 | 1.33e6 | inactive |
| Tmtc4 (Transmembrane O-mannosyltransferase targeting cadherins 4) | DRSC15702 | 1.26e6 | 1.30e6 | 1.21e6 | 1.33e6 | inactive |
| Skadu | DRSC01490 | 1.43e6 | 1.49e6 | 8.71e5 | 1.09e6 | inactive |
| Cpr49Ae (Cuticular protein 49Ae) | DRSC07201 | 1.33e6 | 1.40e6 | 9.77e5 | 1.08e6 | inactive |
| CG10081 | DRSC05962 | 1.52e6 | 1.55e6 | 1.14e6 | 1.21e6 | inactive |
| CG14505 | DRSC06476 | 1.45e6 | 1.52e6 | 1.15e6 | 1.27e6 | inactive |
| tim (timeless) | DRSC00841 | 1.33e6 | 1.38e6 | 8.85e5 | 8.49e5 | inactive |
| PCID2 (PCI domain-containing protein 2) | DRSC10822 | 1.48e6 | 1.55e6 | 1.32e6 | 1.09e6 | inactive |
| CG10750 | DRSC02105 | 1.33e6 | 1.38e6 | 1.26e6 | 1.30e6 | inactive |
| sima (similar) | DRSC17055 | 1.43e6 | 1.54e6 | 8.27e5 | 9.05e5 | inactive |
| CG17974 | DRSC04299 | 1.65e6 | 1.71e6 | 1.22e6 | 2.74e5 | inactive |
| Ns3 (Nucleostemin 3) | DRSC18607 | 5.35e5 | – | 8.52e5 | – | inactive |
| CG34199 | DRSC05867 | 5.24e5 | – | 7.55e5 | – | inactive |
| CG9782 | DRSC19145 | 1.20e6 | 1.40e6 | 1.05e6 | 1.17e6 | inactive |
| CG9782 | DRSC20209 | 1.57e6 | 1.57e6 | 1.10e6 | 1.18e6 | inactive |
| Pex13 (Peroxin 13) | DRSC06877 | 1.53e6 | 1.59e6 | 1.11e6 | 1.15e6 | inactive |
| Kpc2 (Kip1 ubiquitination-promoting complex subunit 2) | DRSC07635 | 1.57e6 | 1.58e6 | 1.18e6 | 1.23e6 | inactive |
| Obp22a (Odorant-binding protein 22a) | DRSC00088 | 1.55e6 | 1.58e6 | 1.16e6 | 1.30e6 | inactive |
| Tps1 (Trehalose-6-phosphate synthase 1) | DRSC00269 | 1.38e6 | 1.34e6 | 9.81e5 | 1.01e6 | inactive |
| CG33285 | DRSC11463 | 1.41e6 | 1.49e6 | 1.08e6 | 1.23e6 | inactive |
| AANATL3 (Arylalkylamine N-acetyltransferase-like 3) | DRSC02089 | 1.52e6 | 1.65e6 | 1.31e6 | 3.53e5 | inactive |
| CG6839 | DRSC10723 | 1.60e6 | 1.62e6 | 1.41e6 | 1.51e6 | inactive |
| Exn (Ephexin) | DRSC09673 | 1.58e6 | 1.81e6 | 8.38e5 | 1.02e6 | inactive |
| Exn (Ephexin) | DRSC10077 | 1.45e6 | 1.49e6 | 1.29e6 | 1.45e6 | inactive |
| Vha26 (Vacuolar H[+]-ATPase 26kD subunit) | DRSC12371 | 1.41e6 | 1.51e6 | 1.15e6 | 1.25e6 | inactive |
| scpr-A + scpr-C | DRSC15737 | 1.65e6 | 1.41e6 | 1.18e6 | 1.35e6 | inactive |
| Mcm7 (Minichromosome maintenance 7) | DRSC11219 | 1.31e6 | 1.45e6 | 1.18e6 | 1.04e6 | inactive |
| CG14563 | DRSC11724 | 1.61e6 | 2.13e6 | 1.32e6 | 1.37e6 | inactive |
| dsb (debris buster) | DRSC08407 | 1.27e6 | 1.24e6 | 7.37e5 | 9.13e5 | inactive |
| dsb (debris buster) | DRSC08542 | 1.45e6 | 1.26e6 | 9.55e5 | 1.18e6 | inactive |

Part of the list above, reduced to “S2R+ cell number, rep 1”.
CG10081 [DRSC05962]	1.14e6
CG14505 [DRSC06476]	1.15e6
tim (timeless) [DRSC00841]	8.85e5
PCID2 (PCI domain-containing protein 2) [DRSC10822]	1.32e6
CG10750 [DRSC02105]	1.26e6
sima (similar) [DRSC17055]	8.27e5
CG17974 [DRSC04299]	1.22e6
Ns3 (Nucleostemin 3) [DRSC18607]	8.52e5
CG34199 [DRSC05867]	7.55e5
CG9782 [DRSC19145]	1.05e6
CG9782 [DRSC20209]	1.10e6

Additional results follow:
| Target gene | dsRNA | Kc cell number, rep 1 | Kc cell number, rep 2 | S2R+ cell number, rep 1 | S2R+ cell number, rep 2 | outcome |
| --- | --- | --- | --- | --- | --- | --- |
| MsR2 + CG13802 (retired record) | DRSC08336 | 1.67e6 | 1.66e6 | 9.84e5 | 1.43e6 | inactive |
| MsR2 + CG13802 (retired record) | DRSC08337 | 1.50e6 | 1.46e6 | 1.04e6 | 1.33e6 | inactive |
| MRG15 (MORF-related gene 15) | DRSC16731 | 1.50e6 | 1.54e6 | 1.19e6 | 1.34e6 | inactive |
| CG10226 | DRSC09715 | 1.33e6 | 1.44e6 | 1.21e6 | 1.18e6 | inactive |
| vilya | DRSC18588 | 1.41e6 | 1.40e6 | 9.64e5 | 1.07e6 | inactive |
| CG6051 | DRSC15956 | 4.87e5 | – | 6.89e5 | – | inactive |
| CG30075 | DRSC05484 | 1.55e6 | 1.46e6 | 1.05e6 | 1.27e6 | inactive |
| CG7860 | DRSC20060 | 5.50e5 | – | 8.55e5 | – | inactive |
| CG15822 | DRSC08482 | 1.45e6 | 1.29e6 | 9.92e5 | 1.28e6 | inactive |
| CG15822 | DRSC08483 | 1.44e6 | 1.26e6 | 9.16e5 | 1.19e6 | inactive |
| CG6138 | DRSC02933 | 1.74e6 | 1.89e6 | 1.43e6 | 1.55e6 | inactive |
| Osi7 (Osiris 7) | DRSC12176 | 1.58e6 | 1.70e6 | 1.34e6 | 1.42e6 | inactive |
| Vsp37A (Vacuolar protein sorting 37A) | DRSC18794 | 1.55e6 | 1.47e6 | 1.06e6 | 1.08e6 | inactive |
| kkv (krotzkopf verkehrt) | DRSC12315 | 1.50e6 | 1.57e6 | 1.23e6 | 1.28e6 | inactive |
| fau | DRSC12816 | 1.48e6 | 1.54e6 | 1.08e6 | 1.26e6 | inactive |
| fau | DRSC12817 | 1.55e6 | 1.59e6 | 1.14e6 | 1.34e6 | inactive |
| fau | DRSC16943 | 1.67e6 | 1.72e6 | 1.31e6 | 1.46e6 | inactive |
| fau | DRSC16944 | 1.45e6 | 1.53e6 | 1.27e6 | 1.31e6 | inactive |
| fau | DRSC16945 | 1.33e6 | 1.30e6 | 9.91e5 | 1.09e6 | inactive |
| CdGAPr (Cd GTPase activating protein-related) | DRSC03289 | 1.62e6 | 1.66e6 | 1.24e6 | 2.46e5 | inactive |
| qtc (quick-to-court) | DRSC02364 | 1.26e6 | 1.37e6 | 5.46e5 | 6.62e5 | inactive |
| qtc (quick-to-court) | DRSC02365 | 1.63e6 | 1.56e6 | 1.18e6 | 1.38e6 | inactive |
| CG5767 | DRSC06953 | 1.56e6 | 1.62e6 | 1.18e6 | 1.20e6 | inactive |
| dhd (deadhead) | DRSC18761 | 6.20e5 | – | 8.34e5 | – | inactive |
| st (scarlet) | DRSC11399 | 1.49e6 | 1.64e6 | 1.16e6 | 1.21e6 | inactive |
| tst (twister) | DRSC14212 | 1.56e6 | 1.67e6 | 1.18e6 | 1.31e6 | inactive |
| Sld5 | DRSC14892 | 1.58e6 | 1.74e6 | 1.06e6 | 1.11e6 | inactive |
| inc (insomniac) | DRSC17954 | 1.60e6 | 1.64e6 | 9.85e5 | 1.12e6 | inactive |
| inc (insomniac) | DRSC18512 | 5.23e5 | – | 8.39e5 | – | inactive |
| CG10274 | DRSC09716 | 1.33e6 | 1.38e6 | 1.15e6 | 1.06e6 | inactive |
| l(3)87Df (lethal (3) 87Df) | DRSC16982 | 1.52e6 | 1.53e6 | 1.01e6 | 1.14e6 | inactive |
| RpS26 (Ribosomal protein S26) | DRSC03420 | 9.81e5 | 1.02e6 | 8.14e5 | 9.96e5 | active |
| CG31344 | DRSC16069 | 1.18e6 | 1.22e6 | 1.13e6 | 1.29e6 | inactive |
| Cpr62Bc (Cuticular protein 62Bc) | DRSC08545 | 1.43e6 | 1.32e6 | 1.15e6 | 1.33e6 | inactive |
| Prosalpha4 (Proteasome alpha4 subunit) | DRSC20271 | 1.46e6 | 1.52e6 | 9.55e5 | 1.13e6 | inactive |
| LTV1 (LTV1 ribosome biogenesis factor) | DRSC05951 | 1.23e6 | 1.30e6 | 1.16e6 | 1.13e6 | inactive |
| ago (archipelago) | DRSC08463 | 1.60e6 | 1.76e6 | 1.22e6 | 1.13e6 | inactive |
| CG7600 | DRSC09681 | 1.48e6 | 1.54e6 | 1.18e6 | 1.09e6 | inactive |
| FucTB (alpha1,3-fucosyltransferase B) | DRSC02745 | 1.48e6 | 1.52e6 | 1.13e6 | 1.31e6 | inactive |
| CG10911 | DRSC06008 | 1.53e6 | 1.64e6 | 1.22e6 | 1.30e6 | inactive |
| CG13039 | DRSC09920 | 1.54e6 | 1.60e6 | 1.39e6 | 1.56e6 | inactive |
| l(2)37Bb (lethal (2) 37Bb) | DRSC02088 | 1.26e6 | 1.41e6 | 1.02e6 | 1.14e6 | inactive |
